Earlier results, collected in patent US11524046B2, “Biofilm prevention, disruption and treatment with bacteriophage lysin” (priority 2012, dated 2022).
At least one compound was matched to its structure with a doubt left.

Tested on: S. aureus biofilms
Conditions: high concentrations: oxacillin 400, vancomycin 800, clindamycin 800 (printed ag/ml, tag/ml), 24 h; cited from earlier work

In the case of `CCC[C@@H]1C[C@@H](C(=O)N[C@@H]([C@H]2O[C@H](SC)[C@H](O)[C@@H](O)[C@H]2O)[C@H](C)Cl)N(C)C1` [clindamycin], the “effect on the established S. aureus biofilms” value is given as “no effect”.
